The list shows a part of the results. The main result of the screen is listed elsewhere. These columns were measured beside it and carry no call. Most of these compounds were active or inconclusive in the main read-out, so they are no random draw. The note in brackets gives the kind of curve behind each potency; many fits are weak.
Experiment: qHTS Assay to Find Inhibitors of Chronic Active B-Cell Receptor Signaling
Conditions: ABC-DLBCL IkBa-CBG/CBR reporter, luminescence ratio (green luciferase fused to IkBa over red control in TMD8 lymphoma cells), 4 h
Summary of the method: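 Cell line TMD8 (human ABC DLBCL), stably expressing tet-inducible CBG68-IkBa fusion and CBR; IMDM/0.5% FBS; cpd up to 46 uM; dox induction, 4 h, 37C/5% CO2; dual luminescence; green/red ratio; MG132 control.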

[1] = measured here: CBR red luminescence, cell number
[2] = measured here: IkBa-CBG green luminescence

## CCCn1nnc(NC(=O)/C=C/c2ccccc2)n1
[1]
  AC50: 35.5 µM [falling, single point]

## CCOC(=O)c1sc(Nc2ccc(Br)cc2)nc1C
[1]
  AC50: 0.562 µM [rising, full curve]

## CC(C)(C)c1ccc(C(=O)C2CCCN(C(=O)c3ccccn3)C2)cc1 (stereo unspecified)
[1]
  AC50: 3.16 µM [rising, full curve]

## Cc1ccc(OCCNC(=O)/C=C/c2ccccc2)cc1
[1]
  AC50: 23.1 µM [rising, partial curve, poor fit]

## CN(C)C(=O)COc1ccc(C(=O)/C=C/c2cccnc2)cc1
[1]
  AC50: 11.2 µM [falling, partial curve]
[2]
  AC50: 11.2 µM [rising, partial curve, poor fit]

## Cc1cc(C(=O)COc2ccc([N+](=O)[O-])cc2)c(C)n1C1CC1
[1]
  AC50: 1.26 µM [rising, full curve, poor fit]

## Cc1ccccc1NC(=O)C(=O)NCCCN1CCCC1=O
[1]
  AC50: 4.61 µM [falling, full curve, poor fit]

## C=C(C(=O)Oc1ccccc1C(C)(C)C)c1ccccc1
[1]
  AC50: 25.9 µM [falling, single point]

## CC(NC(=O)CSc1nnc(COc2ccccc2)o1)c1ccccc1 (stereo unspecified)
[1]
  AC50: 35.5 µM [rising, single point]

## OCCCNc1ncnc2c1cnn2-c1ccc(Cl)cc1
[1]
  AC50: 11.2 µM [falling, single point]

## COC(=O)c1ccc(C(=O)OC)c(NC(=O)CSCC(=O)O)c1
[1]
  AC50: 0.891 µM [falling, full curve, poor fit]

## COc1ccc(/C(C)=C2/SC(=S)N(CCC(=O)O)C2=O)cc1
[1]
  AC50: 2.91 µM [falling, full curve]

## CC1(C)CC(=O)C(C2=NC(C)(C)Cc3ccccc32)=C(O)C1
[1]
  AC50: 31.6 µM [rising, single point]

## CN1Cc2cc(C(=O)c3ccccc3O)cnc2NC1=O
[1]
  AC50: 11.2 µM [falling, partial curve, poor fit]

## CCOC(=O)c1c(NC(=O)/C=C/C(=O)O)sc(C)c1-c1ccc(C)c(C)c1
[1]
  AC50: 10 µM [falling, partial curve, poor fit]

## Cc1cc(/C=C(\C#N)C(=O)NCc2ccco2)c(C)n1C1CCCC1
[1]
  AC50: 5.17 µM [rising, single point]

## Clc1cccc(-c2nc(NCc3cccnc3)c3ccccc3n2)c1
[1]
  AC50: 35.5 µM [falling, single point]

## C/C=C/Cn1c(SCCCc2ccccc2)nc2c1c(=O)[nH]c(=O)n2C
[2]
  AC50: 18.4 µM [rising, partial curve, poor fit]

## C[C@H](CO)N1C[C@H](C)[C@@H](CN(C)Cc2ccc(Cl)c(Cl)c2)Oc2c(NC(=O)C3CC3)cccc2C1=O
[1]
  AC50: 16.4 µM [falling, single point]

## NS(=O)(=O)c1cccc(NC(=O)CCSc2ccccc2Cl)c1
[1]
  AC50: 13 µM [falling, partial curve]

## Cc1ccc(C(=O)N(C)CC(=O)Nc2ccc(N3CCOCC3)cc2)s1
[1]
  AC50: 4.61 µM [falling, partial curve]

## O=C(Cn1c(NCCO)nc2ccccc21)N1CCN(Cc2ccccc2)CC1
[1]
  AC50: 3.16 µM [rising, partial curve, poor fit]

## Cc1ccc(NC2=Nc3ccccc3CS2)cc1
[1]
  AC50: 1.41 µM [rising, partial curve, poor fit]

## Cc1ccc(S(=O)(=O)CCC(=O)Nc2nnc(CC(C)C)s2)cc1
[1]
  AC50: 9.2 µM [falling, partial curve, poor fit]

## CCOC(=O)C(NCCOC)(NC(C)=O)C(F)(F)F (stereo unspecified)
[1]
  AC50: 15.8 µM [rising, partial curve, poor fit]

## Cc1c(Cl)c(-c2n[nH]c(=S)n2-c2ccc(F)cc2)nn1C
[1]
  AC50: 1.58 µM [rising, partial curve, poor fit]

## CCNc1nc(NCC)nc(N/N=C/c2ccc(Br)cc2)n1
[1]
  AC50: 1.12 µM [rising, full curve]

## O=C(CCNc1ccc(Cc2ccncc2)cc1)c1cccc([N+](=O)[O-])c1
[1]
  AC50: 28.2 µM [falling, single point]

## O=C(CCNC(=O)c1ccco1)Nc1ccc(F)c(Cl)c1
[1]
  AC50: 35.5 µM [rising, single point]

## O=C(Nc1ccc(SC(F)F)cc1)C12CCC(CC1)C2
[1]
  AC50: 0.651 µM [rising, partial curve, poor fit]

## COc1ccc(C(CCN2CCCCC2)c2c(O)cc(OC)cc2OC)cc1 (stereo unspecified)
[1]
  AC50: 35.5 µM [rising, single point]

## N#Cc1ccc(C(=O)Nc2nnc(-c3cccs3)o2)cc1
[1]
  AC50: 2.24 µM [falling, full curve, poor fit]

## Cc1nc(-c2cccnc2)sc1C(=O)Nc1cccc(C(F)(F)F)c1
[1]
  AC50: 35.5 µM [falling, single point]

## Cc1cc(C)c2c(N)c(C(=O)Nc3ncc(C)s3)sc2n1
[1]
  AC50: 11.6 µM [falling, partial curve, poor fit]

## COc1ccc([N+](=O)[O-])cc1CSc1nnc(NC(C)=O)s1
[1]
  AC50: 7.94 µM [rising, partial curve, poor fit]

## CCOC(=O)CN1C(=O)S/C(=C/c2ccc(C)o2)C1=O
[1]
  AC50: 0.631 µM [rising, full curve, poor fit]

## O=C(CN1c2ccccc2Sc2ccccc21)NNC(=O)Nc1ccc(Cl)c(Cl)c1
[1]
  AC50: 5.01 µM [falling, partial curve]

## Cn1c(=O)c2c(nc(Br)n2C)n(C)c1=O
[1]
  AC50: 23.1 µM [falling, single point]

## COc1ccc(S(=O)(=O)Nc2c(NC3CCCCC3)c3ccccc3oc2=O)cc1Cl
[1]
  AC50: 8.91 µM [falling, partial curve]

## C=CCn1c(=O)n(CCOC)c(=O)c2sc3ccccc3c21
[1]
  AC50: 0.0651 µM [rising, full curve, poor fit]

## COc1ccc(NC(=O)CCC(=O)Nc2nnc(C(F)(F)F)s2)c(OC)c1
[1]
  AC50: 29.1 µM [rising, single point]

## CCOC(=O)c1cc(C)sc1NC(=O)c1ccc(Cl)s1
[1]
  AC50: 0.92 µM [rising, partial curve, poor fit]

## Cc1ccnc(NS(=O)(=O)c2ccc(NC(=O)c3c(-c4ccccc4Cl)noc3C)cc2)n1
[1]
  AC50: 0.58 µM [falling, partial curve, poor fit]

## O=C(Nc1ccccc1-c1ccccc1)c1ccccc1[N+](=O)[O-]
[1]
  AC50: 35.5 µM [rising, single point]

## O=C(NC1CCCC1)C(c1ccncc1)N(CCCN1CCOCC1)C(=O)c1ccc(-c2ccccc2)[nH]1 (stereo unspecified)
[1]
  AC50: 1.41 µM [rising, full curve, poor fit]

## O=C(COc1ccc(Br)cc1F)NC1CC1
[1]
  AC50: 13 µM [rising, partial curve, poor fit]

## C=CCN(c1ccccc1)S(=O)(=O)c1cccc(C(=O)Nc2nnc(SCC)s2)c1
[1]
  AC50: 20.6 µM [falling, single point]

## O=C(Nc1nnc(-c2cccnc2)o1)c1cccc(Cl)c1
[1]
  AC50: 4.47 µM [falling, full curve]

## CCN1C(=O)CC(NNC(=O)c2ccccc2)C1=O (stereo unspecified)
[1]
  AC50: 20 µM [falling, single point]

## CCN(CC(=O)Nc1ccc2c(c1)OCCO2)C(=O)C1CC(=O)N(c2ccc(OC)cc2OC)C1 (stereo unspecified)
[1]
  AC50: 1.46 µM [rising, full curve]

## Cc1nn(Cc2ccccc2)c2c1C(c1cccnc1)C(C#N)=C(N)O2 (stereo unspecified)
[2]
  AC50: 23.1 µM [falling, partial curve, poor fit]

## O=C(NC(=S)N1CCN(c2ccccc2)CC1)c1c(F)cccc1F
[1]
  AC50: 8.91 µM [rising, partial curve]
[2]
  AC50: 15.8 µM [falling, partial curve, poor fit]

## N#Cc1ccccc1Sc1ccccc1C(=O)OCC(=O)N1CCN(C(=O)c2ccco2)CC1
[1]
  AC50: 22.4 µM [rising, single point]

## CCCSc1ccc([C@@H]2[C@H]3C(=O)N(CC)C(=O)[C@H]3[C@]3(C(=O)OC)CCCN23)cc1
[2]
  AC50: 4.11 µM [rising, partial curve, poor fit]

## N#C/C(=C\c1ccc(-c2ccc([N+](=O)[O-])cc2)o1)C(=O)Nc1nc(-c2cccs2)cs1
[1]
  AC50: 4.47 µM [rising, single point]

## Cc1ccc(SCCNC(=O)c2ccc(C)c([N+](=O)[O-])c2)cc1
[1]
  AC50: 11.2 µM [rising, partial curve, poor fit]

## O=C(Nc1ccc2c(c1)OCO2)c1ccc(S(=O)(=O)N2CCCC2)cc1
[1]
  AC50: 15.8 µM [falling, single point]

## CN(C(=O)CN1C(=O)S/C(=C\c2ccc(F)cc2)C1=O)C1CCS(=O)(=O)C1 (stereo unspecified)
[1]
  AC50: 11.2 µM [falling, single point]

## Cc1ccc2c(c1)OC(=O)CC2c1ccccc1 (stereo unspecified)
[1]
  AC50: 23.1 µM [rising, single point]

## COc1cc(CNCCN2CCOCC2)ccc1OCc1c(Cl)cccc1Cl
[1]
  AC50: 10.3 µM [falling, partial curve, poor fit]

## COc1ccc(-c2csc3ncn(Cc4ccccc4)c(=O)c23)cc1
[1]
  AC50: 35.5 µM [falling, single point]

## Cc1c(Nc2cc(Cl)c3nonc3c2[N+](=O)[O-])c(=O)n(-c2ccccc2)n1C
[1]
  AC50: 10 µM [falling, partial curve]
[2]
  AC50: 6.31 µM [rising, full curve, poor fit]

## CC(=O)Nc1c(C(=O)Nc2ccc3c(c2)OCO3)oc2ccccc12
[1]
  AC50: 8.91 µM [falling, partial curve, poor fit]

Source: PubChem BioAssay AID493014 (National Center for Advancing Translational Sciences (NCATS), 2011)
